No constants are given. Whether binding was seen depends on the method and setting. Binding seen in cells or lysates may run through a third protein. Some binding calls cover weakened binding; strength is not graded here. For part of these data: Tags and fused reporters may be left off the sequences shown.
Experiments:
Assay in all cases: co-IP; HEK293T co-transfected with NPAS3-FLAG or NPAS4-Myc/FLAG variant and ARNT2-Strep; 500 ug whole cell extract on anti-FLAG M2 affinity gel, 3 h at 4 C; washed with 150 mM NaCl, 10 mM Tris/HCl pH 8.0, 0.1% NP-40, 5% glycerol; eluted with 3xFLAG peptide; blot with anti-FLAG then anti-Strep
[1] = target: T1, NPAS3-FLAG wildtype (neuronal PAS 3) (human) (UniProt Q8IXF0)
T1 sequence: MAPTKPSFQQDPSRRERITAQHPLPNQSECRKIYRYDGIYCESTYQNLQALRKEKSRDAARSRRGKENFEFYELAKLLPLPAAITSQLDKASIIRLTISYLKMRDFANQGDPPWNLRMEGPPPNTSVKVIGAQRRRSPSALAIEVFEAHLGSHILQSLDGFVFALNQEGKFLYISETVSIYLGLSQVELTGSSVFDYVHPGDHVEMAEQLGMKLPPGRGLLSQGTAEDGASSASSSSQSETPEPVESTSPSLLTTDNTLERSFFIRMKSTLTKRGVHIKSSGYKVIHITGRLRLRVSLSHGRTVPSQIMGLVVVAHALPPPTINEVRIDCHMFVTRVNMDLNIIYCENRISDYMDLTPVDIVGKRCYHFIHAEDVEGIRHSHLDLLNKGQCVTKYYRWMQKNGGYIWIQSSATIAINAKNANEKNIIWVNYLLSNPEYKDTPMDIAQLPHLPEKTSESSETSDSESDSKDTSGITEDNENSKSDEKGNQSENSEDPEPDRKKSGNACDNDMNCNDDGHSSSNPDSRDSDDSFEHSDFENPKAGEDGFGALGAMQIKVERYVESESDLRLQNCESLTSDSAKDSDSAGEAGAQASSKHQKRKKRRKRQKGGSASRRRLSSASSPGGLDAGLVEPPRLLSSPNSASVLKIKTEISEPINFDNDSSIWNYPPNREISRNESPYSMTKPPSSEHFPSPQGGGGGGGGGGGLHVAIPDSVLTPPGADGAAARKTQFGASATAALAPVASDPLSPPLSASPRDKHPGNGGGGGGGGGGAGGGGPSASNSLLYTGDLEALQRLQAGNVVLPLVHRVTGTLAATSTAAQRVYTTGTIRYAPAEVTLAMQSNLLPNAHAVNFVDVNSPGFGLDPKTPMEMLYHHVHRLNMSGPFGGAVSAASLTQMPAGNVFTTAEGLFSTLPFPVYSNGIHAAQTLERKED

[2] = target: NPAS4 170X-Myc/FLAG (c.508C>T nonsense variant) (human) (UniProt Q8IUM7)
[3] = target: T2, NPAS4-Myc/FLAG wildtype (neuronal PAS 4) (human) (UniProt Q8IUM7)
T2 sequence: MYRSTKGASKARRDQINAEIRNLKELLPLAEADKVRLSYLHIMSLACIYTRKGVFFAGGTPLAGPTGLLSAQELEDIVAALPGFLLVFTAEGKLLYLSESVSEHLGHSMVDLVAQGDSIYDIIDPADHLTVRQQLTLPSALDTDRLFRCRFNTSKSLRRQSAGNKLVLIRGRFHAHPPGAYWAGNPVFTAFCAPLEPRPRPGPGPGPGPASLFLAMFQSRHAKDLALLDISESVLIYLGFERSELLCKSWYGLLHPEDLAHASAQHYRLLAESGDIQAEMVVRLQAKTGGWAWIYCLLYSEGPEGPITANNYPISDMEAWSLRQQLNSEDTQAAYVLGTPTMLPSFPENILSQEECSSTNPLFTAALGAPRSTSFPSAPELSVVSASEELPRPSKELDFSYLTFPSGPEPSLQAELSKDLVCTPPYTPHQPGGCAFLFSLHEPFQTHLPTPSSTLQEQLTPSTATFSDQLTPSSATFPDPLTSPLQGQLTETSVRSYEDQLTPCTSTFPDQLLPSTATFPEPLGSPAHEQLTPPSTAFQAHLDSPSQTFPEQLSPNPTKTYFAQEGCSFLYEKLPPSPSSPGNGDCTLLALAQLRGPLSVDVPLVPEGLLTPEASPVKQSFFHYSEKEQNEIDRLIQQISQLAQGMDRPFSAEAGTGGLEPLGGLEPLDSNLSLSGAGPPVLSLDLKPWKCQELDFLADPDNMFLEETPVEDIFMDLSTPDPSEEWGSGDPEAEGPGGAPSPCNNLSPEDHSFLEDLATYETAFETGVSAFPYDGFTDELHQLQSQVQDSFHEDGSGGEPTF

- binding [1]: binds
- binding [2]: no binding
- binding [3]: binds
Substance: ARNT2-Strep (from UniProt Q9HBZ2-1 1-717)

From paper PMC7987981
